Measurements as given in article PMC11235169 (2024).

Chains of the proteins cited; added tags and fusions are not shown.
UniProt Q6WVG3: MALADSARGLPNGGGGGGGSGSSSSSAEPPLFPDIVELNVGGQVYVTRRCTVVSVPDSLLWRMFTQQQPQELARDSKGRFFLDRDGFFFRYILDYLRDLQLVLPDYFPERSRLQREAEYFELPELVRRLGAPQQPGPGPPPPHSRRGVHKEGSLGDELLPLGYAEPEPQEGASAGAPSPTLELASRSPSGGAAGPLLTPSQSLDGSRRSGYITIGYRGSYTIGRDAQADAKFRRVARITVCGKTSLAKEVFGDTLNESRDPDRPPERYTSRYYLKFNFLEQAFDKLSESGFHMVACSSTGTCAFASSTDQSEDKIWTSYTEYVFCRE
UniProt Q5DTY9: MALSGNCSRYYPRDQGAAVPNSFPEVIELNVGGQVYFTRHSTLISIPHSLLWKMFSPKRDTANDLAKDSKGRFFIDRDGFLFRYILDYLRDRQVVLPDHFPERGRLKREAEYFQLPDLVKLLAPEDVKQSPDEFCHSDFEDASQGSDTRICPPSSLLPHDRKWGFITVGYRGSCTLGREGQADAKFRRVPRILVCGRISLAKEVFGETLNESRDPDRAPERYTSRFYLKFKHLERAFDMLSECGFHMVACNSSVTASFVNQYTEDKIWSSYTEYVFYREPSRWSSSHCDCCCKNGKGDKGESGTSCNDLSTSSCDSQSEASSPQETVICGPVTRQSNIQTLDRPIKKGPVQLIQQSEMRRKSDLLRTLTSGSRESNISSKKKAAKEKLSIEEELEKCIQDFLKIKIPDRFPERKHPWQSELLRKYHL
UniProt Q50H33: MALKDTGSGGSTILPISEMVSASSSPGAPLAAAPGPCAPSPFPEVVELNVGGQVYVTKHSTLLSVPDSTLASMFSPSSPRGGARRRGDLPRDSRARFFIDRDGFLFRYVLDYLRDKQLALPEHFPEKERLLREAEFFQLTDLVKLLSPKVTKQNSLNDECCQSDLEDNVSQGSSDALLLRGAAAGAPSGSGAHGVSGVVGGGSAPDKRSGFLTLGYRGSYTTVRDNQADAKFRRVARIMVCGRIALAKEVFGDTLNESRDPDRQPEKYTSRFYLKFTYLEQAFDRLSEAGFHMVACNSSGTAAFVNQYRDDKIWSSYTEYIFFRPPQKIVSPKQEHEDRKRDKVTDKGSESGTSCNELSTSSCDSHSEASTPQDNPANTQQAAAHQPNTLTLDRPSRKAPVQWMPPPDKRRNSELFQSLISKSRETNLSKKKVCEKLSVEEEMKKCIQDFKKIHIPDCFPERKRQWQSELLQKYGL

T1: AJAP1-HA (native, from Ajap1^HA/HA knock-in mice) (mouse (endogenous in brain)) (UniProt A2ALI5)
T1 sequence: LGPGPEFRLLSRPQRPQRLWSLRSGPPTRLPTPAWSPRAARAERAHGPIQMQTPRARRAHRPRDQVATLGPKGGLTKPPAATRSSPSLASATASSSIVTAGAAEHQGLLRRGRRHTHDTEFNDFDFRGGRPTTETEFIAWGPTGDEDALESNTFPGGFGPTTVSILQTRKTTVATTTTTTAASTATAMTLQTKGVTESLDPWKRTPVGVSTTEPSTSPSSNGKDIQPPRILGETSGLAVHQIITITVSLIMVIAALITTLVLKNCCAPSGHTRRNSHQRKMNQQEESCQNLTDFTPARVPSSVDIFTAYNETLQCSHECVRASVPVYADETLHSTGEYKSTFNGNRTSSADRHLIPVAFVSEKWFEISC

B1: GB2 (receptor, UniProt Q80T41 41-940)
chain: WARGAPRPPPSSPPLSIMGLMPLTKEVAKGSIGRGVLPAVELAIEQIRNESLLRPYFLDLRLYDTECDNAKGLKAFYDAIKYGPNHLMVFGGVCPSVTSIIAESLQGWNLVQLSFAATTPVLADKKKYPYFFRTVPSDNAVNPAILKLLKHFRWRRVGTLTQDVQRFSEVRNDLTGVLYGEDIEISDTESFSNDPCTSVKKLKGNDVRIILGQFDQNMAAKVFCCAFEESMFGSKYQWIIPGWYEPAWWEQVHVEANSSRCLRRSLLAAMEGYIGVDFEPLSSKQIKTISGKTPQQYEREYNSKRSGVGPSKFHGYAYDGIWVIAKTLQRAMETLHASSRHQRIQDFNYTDHTLGRIILNAMNETNFFGVTGQVVFRNGERMGTIKFTQFQDSREVKVGEYNAVADTLEIINDTIRFQGSEPPKDKTIILEQLRKISLPLYSILSALTILGMIMASAFLFFNIKNRNQKLIKMSSPYMNNLIILGGMLSYASIFLFGLDGSFVSEKTFETLCTVRTWILTVGYTTAFGAMFAKTWRVHAIFKNVKMKKKIIKDQKLLVIVGGMLLIDLCILICWQAVDPLRRTVERYSMEPDPAGRDISIRPLLEHCENTHMTIWLGIVYAYKGLLMLFGCFLAWETRNVSIPALNDSKYIGMSVYNVGIMCIIGAAVSFLTRDQPNVQFCIVALVIIFCSTITLCLVFVPKLITLRTNPDAATQNRRFQFTQNQKKEDSKTSTSVTSVNQASTSRLEGLQSENHRLRMKITELDKDLEEVTMQLQDTPEKTTYIKQNHYQELNDILSLGNFTESTDGGKAILKNHLDQNPQLQWNTTEPSRTCKDPIEDINSPEHIQRRLSLQLPILHHAYLPSIGGVDASCVSPCVSPTASPRHRHVPPSFRVMVSGL
B2: gephyrin (native, mouse brain) (protein, UniProt Q8BUV3 1-769)
chain: MATEGMILTNHDHQIRVGVLTVSDSCFRNLAEDRSGINLKDLVQDPSLLGGTISAYKIVPDEIEEIKETLIDWCDEKELNLILTTGGTGFAPRDVTPEATKEVIEREAPGMALAMLMGSLNVTPLGMLSRPVCGIRGKTLIINLPGSKKGSQECFQFILPALPHAIDLLRDAIVKVKEVHDELEDLPSPPPPLSPPPTTSPHKQTEDKGVQCEEEEEEKKDSGVASTEDSSSSHITAAALAAKIPDSIISRGVQVLPRDTASLSTTPSESPRAQATSRLSTASCPTPKQIRRPDESKGVASRVGSLKARLPSCSSTYSVSEVQSRCSSKENILRASHSAVDITKVARRHRMSPFPLTSMDKAFITVLEMTPVLGTEIINYRDGMGRVLAQDVYAKDNLPPFPASVKDGYAVRAADGPGDRFIIGESQAGEQPTQTVMPGQVMRVTTGAPIPCGADAVVQVEDTELIRESDDGTEELEVRILVQARPGQDIRPIGHDIKRGECVLAKGTHMGPSEIGLLATVGVTEVEVNKFPVVAVMSTGNELLNPEDDLLPGKIRDSNRSTLLATIQEHGYPTINLGIVGDNPDDLLNALNEGISRADVIITSGGVSMGEKDYLKQVLDIDLHAQIHFGRVFMKPGLPTTFATLDIDGVRKIIFALPGNPVSAVVTCNLFVVPALRKMQGILDPRPTIIKARLSCDVKLDPRPEYHRCILTWHHQEPLPWAQSTGNQMSSRLMSMRSANGLLMLPPKTEQYVELHKGEVVDVMVIGRL

target: T1, AJAP1-HA (native, from Ajap1^HA/HA knock-in mice) (mouse (endogenous in brain)); test: affinity purification with mass spectrometry; membrane fractions of Ajap1^HA/HA and WT mouse brains solubilised in CL-91; two immobilised anti-HA antibodies; label-free quantification against WT control

binding	Molecule
binds	KCTD12 (from UniProt Q6WVG3 1-327)
binds	KCTD16 (from UniProt Q5DTY9 1-427)
binds	KCTD8 (from UniProt Q50H33 1-476)
binds	B1
binds	B2

Results are given in words; binding and its absence hold for the method and conditions named. Binding seen in cells or lysates may run through a third protein. These calls come from enrichment with a bait or labelling near it, and not all partners need be listed. Tags and fused reporters may be left off the sequences shown.
